Patent US6849617B2, “Tissue factor antagonists and methods of use thereof” (Sunol Molecular Corporation, priority 1999, dated 2005)
Some results were stated once for a whole list of compounds, not compound by compound.

Sequences of proteins named here, by UniProt entry; tags and fusion partners are left off. Residues count along the entry.
UniProt P13726, 33-275 limits assumed: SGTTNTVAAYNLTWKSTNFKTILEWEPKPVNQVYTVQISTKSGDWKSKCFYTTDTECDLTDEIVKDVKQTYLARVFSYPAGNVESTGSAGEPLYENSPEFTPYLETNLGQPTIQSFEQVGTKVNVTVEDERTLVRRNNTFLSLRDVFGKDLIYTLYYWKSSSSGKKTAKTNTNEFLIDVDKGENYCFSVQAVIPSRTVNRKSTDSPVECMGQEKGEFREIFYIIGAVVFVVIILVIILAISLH

Biological target: TF/VIIa complex (Homo sapiens, UniProt P13726)
Assay: TF/VIIa-dependent FX activation assay
Details: after primary and secondary screening

Row | SMILES | TF antagonist classification
1 | O=C(N/N=C/c1cc([N+](=O)[O-])ccc1O)c1ccc(OCc2cccc(Br)c2)cc1 [Compound 1] | strong TF antagonists
2 | O=C(O)c1cc(/N=C/c2ccc(Br)c([N+](=O)[O-])c2)ccc1O [Compound 2] | strong TF antagonists
3 | O=C(O)c1ccc2c(c1)C(=O)N(c1ccc(-c3ccnc(-c4ccc(N5C(=O)c6ccc(C(=O)O)cc6C5=O)cc4)n3)cc1)C2=O [Compound 4] | strong TF antagonists
4 | O=C1c2cccc3cc(S(=O)(=O)O)cc(c23)C(=O)N1O [Compound 5] | strong TF antagonists
5 | O=P(O)(O)C(CN[C@H]1CC[C@H](O)CC1)P(=O)(O)O [Compound 6] | strong TF antagonists
6 | O=C(NN=Cc1cccc(Br)c1)C1CC1C(=O)N/N=C/c1cccc(Br)c1 (stereo not drawn) [Compound 7] | strong TF antagonists
7 | O=C(Nc1ccc2c(c1)S(=O)(=O)c1cc(NC(=O)c3ccc(Cl)cc3)ccc1-2)c1ccc(Cl)cc1 [Compound 8] | strong TF antagonists
8 | Cc1ccc(NC(=O)Nc2ccc(Cl)cc2)cc1NC(=O)Nc1ccc(Cl)cc1 [Compound 9] | strong TF antagonists
9 | c1ccc(C(c2ccccc2)N2CCN(C(c3ccccc3)c3ccccc3)CC2)cc1 [Compound 10] | strong TF antagonists
10 | CCN1/C(=C/C=C/c2oc3ccc4ccccc4c3[n+]2CC)Oc2ccc3ccccc3c21 [Compound 11] | strong TF antagonists
11 | Oc1c(/N=N/c2ccc3cccc(O)c3n2)ccc2ccccc12 [Compound 12] | strong TF antagonists
12 | CCOc1cccc(/C=N/c2ccc3oc(-c4ccc5ccccc5c4)nc3c2)c1O [Compound 13] | strong TF antagonists
13 | Oc1ccc(C2(CNCC(O)COc3ccccc3)CCCC2)cc1O (stereo not drawn) [Compound 14] | strong TF antagonists
14 | CC(=O)/C(C(=S)NC(=O)c1ccccc1)=C(\N)NC(=O)c1ccccc1 [Compound 15] | strong TF antagonists
15 | O=c1[nH]c2ccc(/N=C/c3ccc(C#Cc4ccccc4)cc3)cc2o1 [Compound 16] | strong TF antagonists
16 | Cc1nn(-c2ccccc2)c(N)c1N [Compound 17] | strong TF antagonists
17 | Cc1ccc(C)c(NC(=S)NC(NC(=O)Cc2cccc3ccccc23)C(Cl)(Cl)Cl)c1 (stereo not drawn) [Compound 18] | strong TF antagonists
18 | COc1ccc(C(=O)n2nnc3ccccc32)cc1 [Compound 19] | strong TF antagonists
